Source: article PMC4519308
No constants are given. Whether binding was seen depends on the method and setting. In cells and extracts the contact can be indirect. Some results given as binding are weak or reduced against the parent protein; the word gives no strength. For part of these data: Sequences can lack the tags named with a protein.

T1: FLAGBak (mouse) (UniProt O08734)
T1 sequence: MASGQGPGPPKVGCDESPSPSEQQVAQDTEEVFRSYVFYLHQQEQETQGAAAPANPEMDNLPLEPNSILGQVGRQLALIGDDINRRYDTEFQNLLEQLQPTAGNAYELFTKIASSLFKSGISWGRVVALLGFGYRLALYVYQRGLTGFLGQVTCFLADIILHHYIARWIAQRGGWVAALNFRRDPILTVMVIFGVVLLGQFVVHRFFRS

B1: Mrps15 (protein, UniProt Q9DC71 58-258)
chain: PVQPKQDDEPPSSAFIKEYKDIIPNIEKVDDVVKRILSLEMASRKEKLKIKQEQLMNKIVENPEDSRTLEAQIIALTVRIRNYEEHMQKHRKDKAHKRHLLMSIDRRKKLLKILRQTNYDVFEKTCKELGVEYTLPPLHFQKVHRRFLAKKALCIRVYQEVQKLKKQKRALKAAAAAAKKEKNEGVPENPSNAVPEKTQVN

Assays:
FLAGBak (mouse) = molecular target: T1, FLAGBak (mouse); experiment: co-IP; HEK293T co-transfected with the two tagged constructs; lysates immunoprecipitated with M2 αFLAG agarose beads, blotted with αGFP; KALB lysis buffer (20mM Tris-HCl pH 8.0, 100mM KCl, 0.2 mM EDTA)
[1] = molecular target: Mrpl44, FLAG-tagged (Mrpl44FLAG) and GFP-tagged (Mrpl44GFP) copies co-transfected (mouse) (UniProt Q9CY73); experiment: as above
[2] = molecular target: Mrpl44 (endogenous) (mouse (endogenous in NIH3T3)) (UniProt Q9CY73); experiment: co-IP; NIH3T3 whole cell extracts immunoprecipitated with rabbit αMrpl44 antibody (control: αrabbit Ig) on Protein G sepharose beads, blotted for Mrpl44, Mrpl12 and Mrps15; endogenous proteins

Molecule | binding (FLAGBak (mouse)) | binding [1] | binding [2]
Mrpl44, FLAG-tagged (Mrpl44FLAG) and GFP-tagged (Mrpl44GFP) copies co-transfected (from UniProt Q9CY73 31-333) | no binding | binds | 
B1 |  |  | binds
